In assay [1] the target is Recombinant human (Myc-DDK-tagged) AKR2 (human) (UniProt Q53H80). Briefly: pull-down; recombinant interacting protein incubated with Myc-DDK-tagged AKR2 for 2 h, then 30 min with c-Myc magnetic beads, shaking, room temperature; eluted with Laemmli sample buffer; Western blot with antibodies specific for the interacting protein; both purified. In general terms: In western blotting, separated proteins are transferred to a membrane and probed.

Amino acid sequences for entries named in this document (tags omitted).
UniProt P08621: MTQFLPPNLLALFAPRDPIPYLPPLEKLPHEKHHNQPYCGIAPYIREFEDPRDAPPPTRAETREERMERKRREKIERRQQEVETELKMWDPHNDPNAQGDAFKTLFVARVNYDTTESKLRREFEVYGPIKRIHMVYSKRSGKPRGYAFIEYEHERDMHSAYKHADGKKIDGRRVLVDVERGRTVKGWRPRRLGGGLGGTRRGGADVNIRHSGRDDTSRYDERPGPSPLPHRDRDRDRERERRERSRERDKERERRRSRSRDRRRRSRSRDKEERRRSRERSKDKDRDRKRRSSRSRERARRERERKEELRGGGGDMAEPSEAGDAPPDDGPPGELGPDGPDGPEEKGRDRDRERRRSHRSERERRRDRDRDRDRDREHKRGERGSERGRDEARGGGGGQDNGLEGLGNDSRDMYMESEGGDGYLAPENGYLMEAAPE

For assay [2], the target named is Recombinant I. scapularis AKR/SUB (Ixodes scapularis) (UniProt Q4VRW2). Briefly: native gel or EMSA; 5 µg of each protein in 20 µl PBS, shaking, 4 °C overnight; 12% polyacrylamide gel under non-denaturing conditions, Coomassie stain or Western blot with rabbit IgG against tick SUB; both purified. (In general: A gel shift assay detects complexes by their altered migration in electrophoresis.)

These are yes or no findings as the source states them, for the method shown. Some results given as binding are weak or reduced against the parent protein; the word gives no strength.

“U1 small nuclear ribonucleoprotein 70 kDa, recombinant (from UniProt P08621 1-437)”: in assay [1], the binding entry is given as “no binding”.

Turning to “Recombinant I. scapularis AKR/SUB (from UniProt Q4VRW2 1-184)”, the binding entry in assay [2] is reported as “binds”.

Source of the values: article PMC7157757.
